The assay concerns the target Polypyrimidine tract binding protein 1 (PTBP1) (human (endogenous in MDA-MB-468 and HCC1395)) (UniProt P26599). Kind of assay: co-IP; anti-PTBP1 immunoprecipitation (Dynabeads protein G, overnight, 4 °C) within RIP experiments on sonicated nuclear lysates of UV-crosslinked MDA-MB-468 and HCC1395 cells; 5 washes in NT2 buffer (150 mM NaCl, 0.05% NP-40); DNase and RNaseA added on beads for protein analysis; 25% of eluates analysed by western blot; IgG as control.

Sequences of proteins named here, by UniProt entry; tags and fusion partners are left off.
UniProt P26599: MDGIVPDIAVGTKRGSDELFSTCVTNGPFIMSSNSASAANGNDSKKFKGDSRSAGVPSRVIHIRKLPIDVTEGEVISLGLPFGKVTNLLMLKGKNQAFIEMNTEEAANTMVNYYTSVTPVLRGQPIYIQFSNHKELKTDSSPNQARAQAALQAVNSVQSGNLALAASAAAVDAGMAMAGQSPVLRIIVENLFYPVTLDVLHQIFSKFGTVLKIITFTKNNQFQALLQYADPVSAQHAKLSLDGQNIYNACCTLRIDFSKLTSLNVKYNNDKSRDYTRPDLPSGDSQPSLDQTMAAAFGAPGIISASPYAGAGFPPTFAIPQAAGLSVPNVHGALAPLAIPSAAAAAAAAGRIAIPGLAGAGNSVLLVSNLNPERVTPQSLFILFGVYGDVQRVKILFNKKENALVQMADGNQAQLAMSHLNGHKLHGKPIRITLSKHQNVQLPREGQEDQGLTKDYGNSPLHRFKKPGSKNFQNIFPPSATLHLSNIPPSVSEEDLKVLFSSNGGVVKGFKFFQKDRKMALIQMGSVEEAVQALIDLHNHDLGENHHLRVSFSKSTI
UniProt Q07955: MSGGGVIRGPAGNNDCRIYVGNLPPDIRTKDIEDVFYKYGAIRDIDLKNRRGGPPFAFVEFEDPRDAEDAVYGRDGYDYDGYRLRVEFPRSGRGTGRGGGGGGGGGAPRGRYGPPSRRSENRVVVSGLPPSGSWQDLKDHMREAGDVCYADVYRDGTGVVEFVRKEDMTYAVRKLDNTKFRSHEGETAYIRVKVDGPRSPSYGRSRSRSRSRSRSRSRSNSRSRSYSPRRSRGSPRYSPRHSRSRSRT

Data on two molecules can be found in PMC9203778.

These are yes or no findings as the source states them, for the method shown. In cells and extracts the contact can be indirect. Some entries that bind do so weakly or less than the wild type.

In the case of “SRSF1 (Serine And Arginine Rich Splicing Factor 1) (from UniProt Q07955 1-248)”, the binding entry was “binds”.

B1: ID4 (inhibitor of DNA-binding 4) protein (protein, UniProt P47928 1-161)
chain: MKAVSPVRPSGRKAPSGCGGGELALRCLAEHGHSLGGSAAAAAAAAAARCKAAEAAADEPALCLQCDMNDCYSRLRRLVPTIPPNKKVSKVEILQHVIDYILDLQLALETHPALLRQPPPPAPPHHPAGTCPAAPPRTPLTALNTDPAGAVNKQGDSILCR
Regarding B1, the binding result is given as “binds”.
